The target in this assay is ataxia-telangiectasia mutated kinase (human (endogenous in SRA01/04)) (UniProt Q13315). As to the kind of experiment: co-IP; SRA01/04 cell lysate; 5 ug primary antibody or IgG (negative control) on protein A/G magnetic beads (Pierce Direct Magnetic IP/Co-IP Kit), 4 h at 4 C, 3 washes with lysis buffer, Western blot.

Chains of the proteins cited; added tags and fusions are not shown. Lines headed by an entry give the natural chain unless they say otherwise; changes in a name come on top.
UniProt Q13315: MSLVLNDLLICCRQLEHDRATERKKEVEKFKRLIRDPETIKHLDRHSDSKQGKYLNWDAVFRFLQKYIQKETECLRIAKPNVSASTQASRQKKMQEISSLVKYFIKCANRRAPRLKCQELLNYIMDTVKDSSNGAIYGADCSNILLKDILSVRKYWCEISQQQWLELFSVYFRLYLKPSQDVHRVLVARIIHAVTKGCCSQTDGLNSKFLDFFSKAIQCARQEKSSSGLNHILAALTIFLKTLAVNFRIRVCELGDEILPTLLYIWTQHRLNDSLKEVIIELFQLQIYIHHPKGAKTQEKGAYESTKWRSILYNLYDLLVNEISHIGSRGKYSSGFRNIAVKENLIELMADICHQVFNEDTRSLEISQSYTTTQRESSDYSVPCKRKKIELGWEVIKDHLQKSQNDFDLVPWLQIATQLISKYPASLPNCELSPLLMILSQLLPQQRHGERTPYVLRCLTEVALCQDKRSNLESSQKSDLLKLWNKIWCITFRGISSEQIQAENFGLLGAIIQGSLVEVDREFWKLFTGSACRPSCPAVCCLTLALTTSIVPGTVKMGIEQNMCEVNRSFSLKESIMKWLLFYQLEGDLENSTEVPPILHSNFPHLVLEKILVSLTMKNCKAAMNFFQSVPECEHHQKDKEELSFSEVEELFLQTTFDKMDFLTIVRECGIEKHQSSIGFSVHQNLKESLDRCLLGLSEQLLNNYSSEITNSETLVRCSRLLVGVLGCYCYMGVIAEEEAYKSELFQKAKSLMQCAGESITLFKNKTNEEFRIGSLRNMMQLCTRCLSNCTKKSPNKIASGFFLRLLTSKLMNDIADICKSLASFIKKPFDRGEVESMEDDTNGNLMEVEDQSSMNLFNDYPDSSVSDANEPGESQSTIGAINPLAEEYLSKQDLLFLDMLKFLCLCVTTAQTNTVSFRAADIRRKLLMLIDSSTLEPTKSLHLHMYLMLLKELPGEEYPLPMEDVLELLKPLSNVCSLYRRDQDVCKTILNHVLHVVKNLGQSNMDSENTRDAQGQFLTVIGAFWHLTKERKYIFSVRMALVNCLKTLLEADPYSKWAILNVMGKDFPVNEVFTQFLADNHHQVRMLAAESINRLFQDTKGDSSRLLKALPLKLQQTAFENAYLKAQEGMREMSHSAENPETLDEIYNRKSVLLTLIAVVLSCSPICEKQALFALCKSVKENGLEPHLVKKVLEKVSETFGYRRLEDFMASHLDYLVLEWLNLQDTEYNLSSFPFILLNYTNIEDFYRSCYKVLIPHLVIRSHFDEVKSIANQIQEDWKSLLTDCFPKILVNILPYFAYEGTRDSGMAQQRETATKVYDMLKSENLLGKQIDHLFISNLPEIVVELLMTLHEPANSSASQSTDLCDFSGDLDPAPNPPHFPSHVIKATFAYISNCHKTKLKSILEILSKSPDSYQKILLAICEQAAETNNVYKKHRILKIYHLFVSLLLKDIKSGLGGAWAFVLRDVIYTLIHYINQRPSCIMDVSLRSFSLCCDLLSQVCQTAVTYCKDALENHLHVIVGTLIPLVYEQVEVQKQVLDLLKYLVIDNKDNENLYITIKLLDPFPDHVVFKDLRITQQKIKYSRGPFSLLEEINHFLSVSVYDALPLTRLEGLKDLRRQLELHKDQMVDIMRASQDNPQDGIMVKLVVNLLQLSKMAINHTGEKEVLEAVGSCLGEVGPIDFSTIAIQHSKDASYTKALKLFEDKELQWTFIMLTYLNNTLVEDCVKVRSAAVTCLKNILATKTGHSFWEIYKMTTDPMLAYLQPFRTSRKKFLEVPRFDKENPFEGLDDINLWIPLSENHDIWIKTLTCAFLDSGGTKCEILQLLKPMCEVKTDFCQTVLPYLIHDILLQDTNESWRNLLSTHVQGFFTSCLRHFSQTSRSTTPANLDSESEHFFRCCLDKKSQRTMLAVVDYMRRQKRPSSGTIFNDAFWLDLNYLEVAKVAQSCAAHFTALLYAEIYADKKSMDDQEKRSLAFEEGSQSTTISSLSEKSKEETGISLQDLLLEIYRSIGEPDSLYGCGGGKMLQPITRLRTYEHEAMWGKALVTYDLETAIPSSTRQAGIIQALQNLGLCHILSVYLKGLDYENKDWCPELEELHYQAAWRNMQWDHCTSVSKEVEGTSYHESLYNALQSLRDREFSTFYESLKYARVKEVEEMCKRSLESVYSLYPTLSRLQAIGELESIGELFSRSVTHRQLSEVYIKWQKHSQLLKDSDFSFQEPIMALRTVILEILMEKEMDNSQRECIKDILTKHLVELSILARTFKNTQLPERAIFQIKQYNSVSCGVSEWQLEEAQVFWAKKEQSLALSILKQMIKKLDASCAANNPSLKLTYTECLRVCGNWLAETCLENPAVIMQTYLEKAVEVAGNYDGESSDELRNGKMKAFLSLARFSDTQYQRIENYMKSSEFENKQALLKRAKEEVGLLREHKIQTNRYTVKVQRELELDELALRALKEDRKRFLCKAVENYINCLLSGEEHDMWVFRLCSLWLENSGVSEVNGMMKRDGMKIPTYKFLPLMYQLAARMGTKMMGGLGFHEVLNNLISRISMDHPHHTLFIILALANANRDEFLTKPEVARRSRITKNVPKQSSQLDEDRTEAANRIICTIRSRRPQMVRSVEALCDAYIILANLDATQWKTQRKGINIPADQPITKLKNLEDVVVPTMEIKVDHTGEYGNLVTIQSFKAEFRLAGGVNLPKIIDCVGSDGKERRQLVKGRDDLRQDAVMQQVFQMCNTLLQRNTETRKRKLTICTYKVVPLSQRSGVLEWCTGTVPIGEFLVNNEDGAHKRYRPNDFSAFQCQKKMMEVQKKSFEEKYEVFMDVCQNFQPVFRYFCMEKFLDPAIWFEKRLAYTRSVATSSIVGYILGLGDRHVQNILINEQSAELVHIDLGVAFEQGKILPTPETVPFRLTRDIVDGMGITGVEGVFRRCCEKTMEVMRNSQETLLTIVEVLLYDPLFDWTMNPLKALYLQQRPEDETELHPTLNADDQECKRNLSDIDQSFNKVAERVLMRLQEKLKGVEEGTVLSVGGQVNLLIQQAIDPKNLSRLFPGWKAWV

Drawing on article PMC7950295, this text covers binding for one molecule.

Results are given in words; binding and its absence hold for the method and conditions named. In cells and extracts the contact can be indirect. Some binding calls cover weakened binding; strength is not graded here.

B1: UBX domain-containing protein 1 (protein, UniProt Q04323 1-297)
chain: MAELTALESLIEMGFPRGRAEKALALTGNQGIEAAMDWLMEHEDDPDVDEPLETPLGHILGREPTSSEQGGLEGSGSAAGEGKPALSEEERQEQTKRMLELVAQKQREREEREEREALERERQRRRQGQELSAARQRLQEDEMRRAAEERRREKAEELAARQRVREKIERDKAERAKKYGGSVGSQPPPVAPEPGPVPSSPSQEPPTKREYDQCRIQVRLPDGTSLTQTFRAREQLAAVRLYVELHRGEELGGGQDPVQLLSGFPRRAFSEADMERPLQELGLVPSAVLIVAKKCPS
Consider B1, for which the binding result is reported as “binds”.
